For at least one compound, name, drawing or mass did not settle the structure.
Test system: HUVECs
Experiment: Cell proliferation assay (WST-1) on HUVECs, with synergy analysis
Format: cell-based, Human
Settings: treatment time extended to 120 hours compared to 72-hour incubation
Description: Cell proliferation assay—The principle of cell proliferation assay is illustrated in FIG. 1. Briefly, HUVECS were seeded and maintained in EGM™-2 (Lonza Bioscience Solutions) medium for 24 hours. The cells were then treated with various dosages of SMI for designated time periods. Each experiment included a DMSO-treated control group. Tetrazolium salt was added according to the manufacturer's instructions and formation of formazan dye was quantified by measuring the absorbance at 440 nm using spectrophotometer. The formation of formazan dye is directly proportional to number of living cells.
Analysis of combined synergistic effect-Analysis of combined SMIs effect was determined from the results of the cell proliferation assay after 72 hours. SMIs synergy was determined by three synergy models. • 1. The Zero Interaction Potency (ZIP) model is a reference model for evaluating the effect of combination of two drugs by comparing the change in the potency of the dose-response curves between individual drugs and their combinations. A zip score higher than 10 is indicative of a synergistic combination, a zip score of between −10 and 10 is indicative of an additive combination and a zip score lower than −10 is indicative of an antagonistic combination. • 2. […] Values below 1 will represent synergism and above 1 antagonism.

Structure (SMILES): CCN(CC)CCCC(C)Nc1nc(C)cc(Nc2ccc3nc(C)cc(N)c3c2)n1.Cl.Cl.Cl (stereo not shown) [NSC 23766 trihydrochloride, N6-[2-(4-Diethylamino-1-methyl-butylamino)-6-methyl-pyrimidin-4-yl]-2-methyl-quinoline-4,6-diamine trihydrochloride]
- inhibitory effect with longer incubation time: did not improve the inhibitory effect
